# From article PMC11905336, “Pyrrole‐Tethered Bisbenzoxazole Derivatives: Apoptosis‐Inducing Agents Targeting Breast Cancer Cells” (Chemical Biology & Drug Design, 2025)
# Read-outs that look alike come from different tables or passages of the source.
# Test system: MCF‐7 cell lines
# Experiment: MTT assay, cytotoxicity on MCF-7 cells
# Assay type: cell-based
# Conditions: Homo sapiens
# Experimental: The cytotoxic effects of PTB derivatives on MCF‐7 breast cancer cells were evaluated using the MTT assay at various concentrations (100 nM, 1 μM, 10 μM, 50 μM, and 100 μM). […] These compounds were selected for further investigation based on their potent activity.
# The human dermal fibroblast (HDFa) and human breast cancer cells (MCF‐7) were obtained from the American Type Culture Collection (ATCC; Manassas, VA, USA). Cells were cultured in RPMI medium (MCF‐7) and DMEM medium (HDFa) was supplemented with 10% FBS, 1% penicillin–streptomycin, 1% amphotericin, and 2.5% L‐glutamine at 37°C in a 5% CO2 incubator.
# MTT Method. The MTT method is used to detect and quantify living organisms cultured with the method colorimetrically. This method relies on intact mitochondria cleaving the tetrazolium ring of the MTT dye. The MTT substance is absorbed and reduced to a colorful, water‐insoluble formazan by a mitochondria‐dependent reaction. Cell viability is measured based on the MTT reduction property, and the density of dye obtained from MTT analysis indicates the number of viable cells. In this study, cell viability was assessed using the MTT (0.5 mg/mL) solution that was added to each well. […] After adding properties to cultures, they were kept at 37°C for 24 h and overnight. Then, at 48 and 72 h after applying the molecules, 10 μL of MTT was added to each well and incubated under similar conditions for 4 h. Absorbance spectrophotometry was performed at a wavelength of 570 nm using the IC50 = [(control absorbents‐sample absorbents)/control absorbents] × 100 calculation method (Khorsandi et al. [2017]).
smiles,measurement,setting,value
"CC/C(=C(\c1ccccc1)c1ccc(OCCN(C)C)cc1)c1ccccc1 [Tamoxifen, reference compound]",IC50,"MCF7, 24 h, read-out: IC50 (μM) for MCF‐7 cell lines, 24 h",8.93 ± 1.97 µM
same,IC50,"MCF7, 72 h, read-out: IC50 (μM) for MCF‐7 cell lines, 72 h",7.59 ± 0.87 µM
same,IC50,"MCF7, read-out: IC50 (μM) for MCF‐7 cell lines, 48 h",8.03 ± 1.58 µM
